Results are given in words; binding and its absence hold for the method and conditions named. Some binding calls cover weakened binding; strength is not graded here.
Experiments:
[1] = molecular target: human plasma fibronectin (human) (UniProt P02751); assay: competition ELISA, FN on immobilized CD9
[2] = molecular target: human plasma fibronectin (human) (UniProt P02751); assay: competition ELISA, peptide 40 µM in solution against FN binding to immobilized CD9
[3] = molecular target: human plasma fibronectin (human) (UniProt P02751); assay: competition ELISA, peptide 6 titrated 0-160 µM against FN binding to immobilized CD9

Amino acid sequences for entries named in this document (tags omitted). A change or cut given only in a name is not applied to a line headed by its entry. Chains listed by the source or under a name are the forms on record and can include a tag or linker.
human plasma fibronectin (P02751, form named): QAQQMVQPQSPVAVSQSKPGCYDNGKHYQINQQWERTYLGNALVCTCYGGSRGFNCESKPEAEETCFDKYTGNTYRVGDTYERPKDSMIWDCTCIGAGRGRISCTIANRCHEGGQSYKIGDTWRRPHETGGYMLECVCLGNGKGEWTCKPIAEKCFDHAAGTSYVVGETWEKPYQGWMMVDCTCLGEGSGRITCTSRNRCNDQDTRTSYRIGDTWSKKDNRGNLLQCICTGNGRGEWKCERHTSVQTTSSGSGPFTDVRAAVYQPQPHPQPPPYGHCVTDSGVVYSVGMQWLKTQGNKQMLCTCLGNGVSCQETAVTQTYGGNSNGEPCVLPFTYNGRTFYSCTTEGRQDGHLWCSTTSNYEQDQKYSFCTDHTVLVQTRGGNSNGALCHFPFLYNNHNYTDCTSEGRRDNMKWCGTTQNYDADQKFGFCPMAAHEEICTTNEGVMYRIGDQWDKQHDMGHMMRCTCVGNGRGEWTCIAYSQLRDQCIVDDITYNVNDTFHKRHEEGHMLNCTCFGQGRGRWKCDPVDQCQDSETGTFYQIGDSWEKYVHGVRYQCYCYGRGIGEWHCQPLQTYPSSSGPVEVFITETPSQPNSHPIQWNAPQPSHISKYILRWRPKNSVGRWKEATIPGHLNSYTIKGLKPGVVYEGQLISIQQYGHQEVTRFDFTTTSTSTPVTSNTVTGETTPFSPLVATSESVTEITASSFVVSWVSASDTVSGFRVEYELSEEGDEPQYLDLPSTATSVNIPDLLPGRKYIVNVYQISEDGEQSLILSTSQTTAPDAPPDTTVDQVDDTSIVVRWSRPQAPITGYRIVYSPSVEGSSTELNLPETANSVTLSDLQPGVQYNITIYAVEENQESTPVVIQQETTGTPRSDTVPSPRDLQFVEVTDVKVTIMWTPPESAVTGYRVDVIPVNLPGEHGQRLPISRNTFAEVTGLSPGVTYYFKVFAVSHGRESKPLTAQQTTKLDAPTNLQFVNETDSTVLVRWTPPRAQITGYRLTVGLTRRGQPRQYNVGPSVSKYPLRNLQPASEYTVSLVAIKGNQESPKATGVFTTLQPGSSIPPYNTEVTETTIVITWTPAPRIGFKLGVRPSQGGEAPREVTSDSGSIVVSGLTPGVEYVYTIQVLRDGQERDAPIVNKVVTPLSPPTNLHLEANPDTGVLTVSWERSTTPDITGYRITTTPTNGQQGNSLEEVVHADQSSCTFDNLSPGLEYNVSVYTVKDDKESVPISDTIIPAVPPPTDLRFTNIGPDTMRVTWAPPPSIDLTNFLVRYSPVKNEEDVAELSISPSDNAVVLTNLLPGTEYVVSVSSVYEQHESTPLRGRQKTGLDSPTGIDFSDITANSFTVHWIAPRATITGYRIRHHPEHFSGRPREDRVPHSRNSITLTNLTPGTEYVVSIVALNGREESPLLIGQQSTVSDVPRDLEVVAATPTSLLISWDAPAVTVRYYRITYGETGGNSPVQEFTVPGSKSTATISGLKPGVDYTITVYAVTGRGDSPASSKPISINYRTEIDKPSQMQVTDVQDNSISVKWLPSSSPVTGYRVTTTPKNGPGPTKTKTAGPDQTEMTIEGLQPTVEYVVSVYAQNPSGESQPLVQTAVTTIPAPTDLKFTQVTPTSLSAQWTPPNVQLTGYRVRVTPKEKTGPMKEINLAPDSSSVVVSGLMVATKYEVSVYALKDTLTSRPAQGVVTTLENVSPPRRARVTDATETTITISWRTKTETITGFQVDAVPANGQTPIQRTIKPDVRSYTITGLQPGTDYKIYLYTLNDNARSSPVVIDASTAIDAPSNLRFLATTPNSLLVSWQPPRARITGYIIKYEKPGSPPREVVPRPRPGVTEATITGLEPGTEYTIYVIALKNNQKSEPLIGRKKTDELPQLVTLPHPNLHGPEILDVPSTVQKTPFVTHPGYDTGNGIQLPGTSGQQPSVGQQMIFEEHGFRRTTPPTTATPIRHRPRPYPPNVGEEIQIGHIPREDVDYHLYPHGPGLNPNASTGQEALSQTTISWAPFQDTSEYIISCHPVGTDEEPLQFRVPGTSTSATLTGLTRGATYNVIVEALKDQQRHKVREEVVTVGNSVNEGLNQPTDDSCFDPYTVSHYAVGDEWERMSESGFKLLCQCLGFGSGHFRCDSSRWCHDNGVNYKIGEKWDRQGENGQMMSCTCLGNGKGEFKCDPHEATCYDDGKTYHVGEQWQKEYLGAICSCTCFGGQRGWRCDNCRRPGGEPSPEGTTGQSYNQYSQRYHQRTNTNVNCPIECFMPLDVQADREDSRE

Measured: binding

PKKDVLETFTVKSCPDAIKEVFDNK [peptide 6]
binds: all assays above

— patent US20040136985A1, “Methods of modifying behavior of CD9-expressing cells” (priority 2002, published 2004)
